Experimental data: PubChem BioAssay AID504808 (Drosophila RNAi Screening Center, 2011)
Aim: 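Genes whose loss lifts activity of an E2F-responsive reporter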 (primary screen). Cells: Drosophila S2 cells. Reagents: long dsRNA against Drosophila genes. Measured: 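Dual luciferase plate measurements; E2F-specific signal taken as firefly over Renilla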. Reading the numbers: E2F firefly: higher = more E2F reporter activity; Renilla normaliser: higher = more normaliser reporter signal. Active means: 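Called active if the normalised E2F reporter went up by over 50%; the cutoff is arbitrary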.
In all, the deposit lists about 21,000 reagents; this is a random part of those that have a named target and a result. In the full data, 18 (0.084%) were called active. 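Raw counts without plate normalisation, one of two replicates; the ratio scores behind the calls were not deposited.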 Entries without a mark were called inactive. Not stated in the record: the amount of reagent, the time to read-out.

The opening 2 entries, to show the layout:
{"gene": "beta'COP", "dsRNA": "DRSC03492", "E2F firefly, rep 1": 62684, "Renilla normaliser, rep 1": 3665}
{"gene": "CG16800", "dsRNA": "DRSC02518", "E2F firefly, rep 1": 96063, "Renilla normaliser, rep 1": 4425}

The listing, repeating the preview:
{"gene": "beta'COP", "dsRNA": "DRSC03492", "E2F firefly, rep 1": 62684, "Renilla normaliser, rep 1": 3665}
{"gene": "CG16800", "dsRNA": "DRSC02518", "E2F firefly, rep 1": 96063, "Renilla normaliser, rep 1": 4425}
{"gene": "SA1", "dsRNA": "DRSC03424", "E2F firefly, rep 1": 1.10e5, "Renilla normaliser, rep 1": 3956}
{"gene": "CG15553", "dsRNA": "DRSC15091", "E2F firefly, rep 1": 1.20e5, "Renilla normaliser, rep 1": 6060}
{"gene": "UQCR-C1", "dsRNA": "DRSC15508", "E2F firefly, rep 1": 65201, "Renilla normaliser, rep 1": 3686}
{"gene": "CG7304", "dsRNA": "DRSC10804", "E2F firefly, rep 1": 1.61e5, "Renilla normaliser, rep 1": 9106}
{"gene": "Cp7Fa", "dsRNA": "DRSC18032", "E2F firefly, rep 1": 1.11e5, "Renilla normaliser, rep 1": 5462}
{"gene": "Cp7Fa", "dsRNA": "DRSC18033", "E2F firefly, rep 1": 95603, "Renilla normaliser, rep 1": 5050}
{"gene": "CG7365", "dsRNA": "DRSC10824", "E2F firefly, rep 1": 85499, "Renilla normaliser, rep 1": 3806}
{"gene": "CG10257", "dsRNA": "DRSC05985", "E2F firefly, rep 1": 1.07e5, "Renilla normaliser, rep 1": 4676}
{"gene": "euc", "dsRNA": "DRSC14492", "E2F firefly, rep 1": 94742, "Renilla normaliser, rep 1": 5415}
{"gene": "CG12511", "dsRNA": "DRSC02171", "E2F firefly, rep 1": 1.56e5, "Renilla normaliser, rep 1": 5263}
